# Experimental data: patent publication US4778811A, “Pharmaceutical compositions of 2-methyl-thiazolo[4,5-c]quinoline” (EGIS Gyogyszergyar, priority 1985, dated 1988)
# At least one compound was matched to its structure with a doubt left.
# Experiments:
# [1] = system: high affinity uptake of NA; experiment: High affinity uptake of NA in rat brain cortical P2 fraction; type: in vivo; settings: 30 and 60 minutes after the injection
# [2] = system: high affinity uptake of 5HT; experiment: High affinity uptake of 5HT in rat brain cortical P2 fraction; type: in vivo; settings: 30 and 60 minutes after the injection
# dopamine (DA) = experiment: DA level and turnover rate of DA in rat striatum; type: in vivo
# Experimental: (§1) 11. The turnover rate of dopamine (TRDA), noradrenaline (TRNA) and serotonin (TR5 HT) was measured 1 hr after the injection of 30 mg/kg s.c. 2-methyl-thiazolo[4,5-c]quinoline-ethanesulphonate.
# serotonin (5HT) = experiment: 5HT level and turnover rate of 5HT in rat brain parts; type: in vivo; settings: 1 hr after 30 mg/kg s.c.
# Experimental: as §1
# [3] = Measurement of motility in the shuttle-box; type: in vivo; settings: 30-minute observation
# Experimental: The apparatus described in the shuttle-box test is used also for investigating the motility of animals. In case of motility experiment all the stimuli are switched off and the animals are allowed to move freely from one compartment of the box to the other. […] Significancy is calculated by Student's test for two means.
# [4] = Effect on basal metabolism (O2 consumption); type: in vivo, rats; settings: urethane 0.6 g/kg i.p., 30° C.
# Experimental: The O2 consumption of rats was measured by the method of Issekutz and Issekutz (1952) at constant temperature (30° C.).
# O2 consumption of the animals was expressed in ml/h and calculated for body surface, and given finally in ml/h/dm^2. Following injection of urethane and the basal O2 consumption was measured during 30 minutes. This was followed by the injection of the test substance and O2 consumption was registered immediately afterwards. The difference between the highest O2 consumption and the basal value was expressed in percent.
# O2 consumption of the animals was calculated according to the following equation: [formula] V=2000 cm^3 P=pressure fall (mmHg)
# T=period of measurement (h)
# O2 consumption was calculated for body surface and expressed as ml/dm^2 /h. Body surface was calculated on the basis of the "Diack" formula: […]
structure (smiles),measurement,setting,value
"Cc1nc2cnc3ccccc3c2s1 [B compound, 2-methyl-thiazolo[4,5-c]quinoline-ethanesulfonate]",high affinity uptake of NA,[1],not changed
same,high affinity uptake of 5HT,[2],not changed
same,TRDA (in words),dopamine (DA),unaltered
same,dopamine content (in words),dopamine (DA),elevated
same,fractional rate constant of DA (in words),dopamine (DA),reduced
same,kb (fractional rate constant),dopamine (DA); 1 hr after 30 mg/kg s.c.,0.15 h⁻¹
same,Kb (fractional rate constant),serotonin (5HT); brainstem,0.50 h⁻¹
same,content of 5HT (in words),serotonin (5HT); brainstem,significantly elevated
same,turnover rate of 5HT (in words),serotonin (5HT); brainstem,not changed
same,5HT level (in words),serotonin (5HT); teldiencephalon,not altered
same,Kb (fractional rate constant),serotonin (5HT); teldiencephalon,0.26 h⁻¹
same,TR5HT (in words),serotonin (5HT); teldiencephalon,reduced
same,fractional rate constant (kb) of 5HT (in words),serotonin (5HT); teldiencephalon,attenuation
same,motility (spontaneous crossings of the gate),[3],slight motility decreasing effect
same,rate of metabolism / O2 consumption,[4],strongly and permanently increase
